In paper PMC12334043:
No constants are given. Whether binding was seen depends on the method and setting. In cells and extracts the contact can be indirect. A yes stands for co-enrichment or nearness to the bait. Other partners may have been found. Where a sequence is shown, tags or fusion partners need not be part of it.

The chains behind the UniProt entries cited, without tags or fusion partners.
UniProt A0A0P0INT0: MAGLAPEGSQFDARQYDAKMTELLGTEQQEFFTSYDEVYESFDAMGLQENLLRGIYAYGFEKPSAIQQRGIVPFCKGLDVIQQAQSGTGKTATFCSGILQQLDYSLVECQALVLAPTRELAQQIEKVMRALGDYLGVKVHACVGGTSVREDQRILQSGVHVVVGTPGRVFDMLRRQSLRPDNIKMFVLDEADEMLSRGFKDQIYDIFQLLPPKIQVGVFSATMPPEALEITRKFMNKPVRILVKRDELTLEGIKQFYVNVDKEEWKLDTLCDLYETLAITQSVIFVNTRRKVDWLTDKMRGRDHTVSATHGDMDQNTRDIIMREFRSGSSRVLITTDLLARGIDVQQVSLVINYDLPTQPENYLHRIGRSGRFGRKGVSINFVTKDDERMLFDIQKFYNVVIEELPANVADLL

Target: T1, CiLV-C capsid protein p29 with a C-terminal HA epitope, expressed from the infectious clone (pcDNA1-p29:HA + pcDNA2) (citrus leprosis virus C) (UniProt Q1KZ58)
T1 sequence: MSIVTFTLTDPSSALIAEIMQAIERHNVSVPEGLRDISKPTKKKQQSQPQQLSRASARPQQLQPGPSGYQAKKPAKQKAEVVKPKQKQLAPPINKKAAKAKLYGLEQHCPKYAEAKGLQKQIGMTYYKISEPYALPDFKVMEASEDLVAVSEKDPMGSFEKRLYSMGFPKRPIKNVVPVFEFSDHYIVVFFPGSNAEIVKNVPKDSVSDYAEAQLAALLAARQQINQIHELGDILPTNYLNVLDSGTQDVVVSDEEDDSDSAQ
Test: affinity purification with mass spectrometry; anti-HA magnetic beads (Pierce Magnetic HA-Tag kit) on extracts of N. benthamiana leaves infected with CiLV-C-p29:HA, 12 dpi; hits filtered as unique against the mock sample (healthy plant); untagged virus as control

| Substance | binding |
| --- | --- |
| eukaryotic initiation factor 4A (endogenous, N. benthamiana) (from UniProt A0A0P0INT0 1-413) | binds |
| hypersensitive-induced response protein 1-like (endogenous, N. benthamiana) | binds |
